This is an account of results in patent US6861508.

Sequences of proteins named here, by UniProt entry; tags and fusion partners are left off. Residues count along the entry.
UniProt P03372, residues 282-595: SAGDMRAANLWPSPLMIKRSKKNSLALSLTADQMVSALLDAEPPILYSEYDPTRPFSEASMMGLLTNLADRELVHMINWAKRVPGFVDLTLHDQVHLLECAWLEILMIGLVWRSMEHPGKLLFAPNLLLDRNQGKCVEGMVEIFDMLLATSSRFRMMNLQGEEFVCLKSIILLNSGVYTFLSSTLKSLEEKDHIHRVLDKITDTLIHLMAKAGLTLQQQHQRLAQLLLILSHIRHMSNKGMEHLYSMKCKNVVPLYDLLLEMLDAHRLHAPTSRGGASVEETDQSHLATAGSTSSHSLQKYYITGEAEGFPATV

The test addresses GST-hERα(DEF) (pGEX2T-hERα(DEF), amino acids 282-595) (human) (UniProt P03372). Kind of test: GST pull-down from HeLa whole cell extract with E2, Western blot.

Results are given in words; binding and its absence hold for the method and conditions named. Binding seen in cells or lysates may run through a third protein. Some entries that bind do so weakly or less than the wild type.

B1: TIF1 (protein, UniProt O15164 1-1050, looked up)
chain: MEVAVEKAVAAAAAASAAASGGPSAAPSGENEAESRQGPDSERGGEAARLNLLDTCAVCHQNIQSRAPKLLPCLHSFCQRCLPAPQRYLMLPAPMLGSAETPPPVPAPGSPVSGSSPFATQVGVIRCPVCSQECAERHIIDNFFVKDTTEVPSSTVEKSNQVCTSCEDNAEANGFCVECVEWLCKTCIRAHQRVKFTKDHTVRQKEEVSPEAVGVTSQRPVFCPFHKKEQLKLYCETCDKLTCRDCQLLEHKEHRYQFIEEAFQNQKVIIDTLITKLMEKTKYIKFTGNQIQNRIIEVNQNQKQVEQDIKVAIFTLMVEINKKGKALLHQLESLAKDHRMKLMQQQQEVAGLSKQLEHVMHFSKWAVSSGSSTALLYSKRLITYRLRHLLRARCDASPVTNNTIQFHCDPSFWAQNIINLGSLVIEDKESQPQMPKQNPVVEQNSQPPSGLSSNQLSKFPTQISLAQLRLQHMQQQVMAQRQQVQRRPAPVGLPNPRMQGPIQQPSISHQQPPPRLINFQNHSPKPNGPVLPPHPQQLRYPPNQNIPRQAIKPNPLQMAFLAQQAIKQWQISSGQGTPSTTNSTSSTPSSPTITSAAGYDGKAFGSPMIDLSSPVGGSYNLPSLPDIDCSSTIMLDNIVRKDTNIDHGQPRPPSNRTVQSPNSSVPSPGLAGPVTMTSVHPPIRSPSASSVGSRGSSGSSSKPAGADSTHKVPVVMLEPIRIKQENSGPPENYDFPVVIVKQESDEESRPQNANYPRSILTSLLLNSSQSSTSEETVLRSDAPDSTGDQPGLHQDNSSNGKSEWLDPSQKSPLHVGETRKEDDPNEDWCAVCQNGGELLCCEKCPKVFHLSCHVPTLTNFPSGEWICTFCRDLSKPEVEYDCDAPSHNSEKKKTEGLVKLTPIDKRKCERLLLFLYCHEMSLAFQDPVPLTVPDYYKIIKNPMDLSTIKKRLQEDYSMYSKPEDFVADFRLIFQNCAEFNEPDSEVANAGIKLENYFEELLKNLYPEKRFPKPEFRNESEDNKFSDDSDDDFVQPRKKRLKSIEERQLLK
With B1, the binding result was “binds”.
